The results in this text go back to patent US20170106084A1.

Experiment [1] has as its target microtubuli associated tau. Nature of the experiment: ELISA, coated antigen.
The target of the next experiment is pTau(S422A) (human). Kind of experiment: Western blot on recombinant tau.
Experiment [2] concerns the target keyhole limpet hemocyanin. Nature of the experiment: condition: 1:5 dilution of supernatant; about 1 to 3% of the maximal value; ELISA, single point. On the technique in general: An ELISA detects its analyte on a solid surface through an enzyme-linked reagent.

Positions count from the first letter of the chain named. No constants are given. Whether binding was seen depends on the method and setting. For some of these results: Binding calls can cover weak binding; strength is not graded here.

B1: VH32/VL21 (antibody, V domains shown)
VH: EVQVLESGGGLVQPGGSLRLSCAVSGFSLSSNAINWVRQAPGKGLEWVGYIAVSGNTYYASWAKGRFTISRDNSKNTVYLQMNSLRAEDTAVYYCGKSNIWGQGTLVTVSS
VL: AQVMTQSPSSLSASVGDRVTITCRSSQSVRTNKLAWFQQKPGQPPKRLIYSASTLDFGVPSRFSGSGSGTEFTLTISSLQPEDFATYYCLGYFDSSADIVAFGGGTKVEIK
For B1, the binding result was “no binding” in experiment [1] and “no binding (tested: 1 ug/ml)” in the experiment with pTau(S422A) (human).

B2: VH32/VL22 (antibody, V domains shown)
VH: B1 VH
VL: B1 VL with K33R, F57Y
In the case of B2, the results for the binding entry (in experiment [1]; in the experiment with pTau(S422A) (human)) were “no binding” and “no binding (tested: 1 ug/ml)”, respectively.

B3: VH00/VL00 (antibody, V domains shown)
VH: QSVEESGGRLVTPGTPLTLTCTVSGFSLSSNAINWVRQAPGKGLEWIGYIAVSGNTYYASWAKGRFTISKASTTVDLKMTSPTAEDTGTYFCGKSNIWGPGTLVTVSL
VL: AQVLTQTTSPVSAAVGSTVTISCQSSQSVRTNKLAWFQQKPGQPPKRLIYSASTLDFGVPSRFSASGSGTQFTLTISDVQCDDAATYYCLGYFDCSIADCVAFGGGTEVVVK
Consider B3, for which the binding entry in experiment [1] was “no binding”; in the experiment with pTau(S422A) (human) it was “binds”.

B4: mAb 086 (antibody, V domains shown)
VH: B3 VH
VL: B3 VL
As to B4, the binding entry in experiment [2] is given as “no binding”.
